The other results are listed elsewhere or left out. Most values lie at the level of the controls, where differences are scatter.
Compound: Cc1nc(Nc2ncc(C(=O)Nc3c(C)cccc3Cl)s2)cc(N2CCN(CCO)CC2)n1 [dasatinib]
Assay: log2 fold change of tryptic peptide abundance, ligand vs vehicle (limited proteolysis) (log2 ratio); higher = more trypsin-susceptible (destabilized)
Details: ligand concentration: 5 uM; sample: K562 cleared lysate

Chains of the proteins cited; added tags and fusions are not shown. Lines headed by an entry give the natural chain unless they say otherwise; changes in a name come on top.
UniProt O95714: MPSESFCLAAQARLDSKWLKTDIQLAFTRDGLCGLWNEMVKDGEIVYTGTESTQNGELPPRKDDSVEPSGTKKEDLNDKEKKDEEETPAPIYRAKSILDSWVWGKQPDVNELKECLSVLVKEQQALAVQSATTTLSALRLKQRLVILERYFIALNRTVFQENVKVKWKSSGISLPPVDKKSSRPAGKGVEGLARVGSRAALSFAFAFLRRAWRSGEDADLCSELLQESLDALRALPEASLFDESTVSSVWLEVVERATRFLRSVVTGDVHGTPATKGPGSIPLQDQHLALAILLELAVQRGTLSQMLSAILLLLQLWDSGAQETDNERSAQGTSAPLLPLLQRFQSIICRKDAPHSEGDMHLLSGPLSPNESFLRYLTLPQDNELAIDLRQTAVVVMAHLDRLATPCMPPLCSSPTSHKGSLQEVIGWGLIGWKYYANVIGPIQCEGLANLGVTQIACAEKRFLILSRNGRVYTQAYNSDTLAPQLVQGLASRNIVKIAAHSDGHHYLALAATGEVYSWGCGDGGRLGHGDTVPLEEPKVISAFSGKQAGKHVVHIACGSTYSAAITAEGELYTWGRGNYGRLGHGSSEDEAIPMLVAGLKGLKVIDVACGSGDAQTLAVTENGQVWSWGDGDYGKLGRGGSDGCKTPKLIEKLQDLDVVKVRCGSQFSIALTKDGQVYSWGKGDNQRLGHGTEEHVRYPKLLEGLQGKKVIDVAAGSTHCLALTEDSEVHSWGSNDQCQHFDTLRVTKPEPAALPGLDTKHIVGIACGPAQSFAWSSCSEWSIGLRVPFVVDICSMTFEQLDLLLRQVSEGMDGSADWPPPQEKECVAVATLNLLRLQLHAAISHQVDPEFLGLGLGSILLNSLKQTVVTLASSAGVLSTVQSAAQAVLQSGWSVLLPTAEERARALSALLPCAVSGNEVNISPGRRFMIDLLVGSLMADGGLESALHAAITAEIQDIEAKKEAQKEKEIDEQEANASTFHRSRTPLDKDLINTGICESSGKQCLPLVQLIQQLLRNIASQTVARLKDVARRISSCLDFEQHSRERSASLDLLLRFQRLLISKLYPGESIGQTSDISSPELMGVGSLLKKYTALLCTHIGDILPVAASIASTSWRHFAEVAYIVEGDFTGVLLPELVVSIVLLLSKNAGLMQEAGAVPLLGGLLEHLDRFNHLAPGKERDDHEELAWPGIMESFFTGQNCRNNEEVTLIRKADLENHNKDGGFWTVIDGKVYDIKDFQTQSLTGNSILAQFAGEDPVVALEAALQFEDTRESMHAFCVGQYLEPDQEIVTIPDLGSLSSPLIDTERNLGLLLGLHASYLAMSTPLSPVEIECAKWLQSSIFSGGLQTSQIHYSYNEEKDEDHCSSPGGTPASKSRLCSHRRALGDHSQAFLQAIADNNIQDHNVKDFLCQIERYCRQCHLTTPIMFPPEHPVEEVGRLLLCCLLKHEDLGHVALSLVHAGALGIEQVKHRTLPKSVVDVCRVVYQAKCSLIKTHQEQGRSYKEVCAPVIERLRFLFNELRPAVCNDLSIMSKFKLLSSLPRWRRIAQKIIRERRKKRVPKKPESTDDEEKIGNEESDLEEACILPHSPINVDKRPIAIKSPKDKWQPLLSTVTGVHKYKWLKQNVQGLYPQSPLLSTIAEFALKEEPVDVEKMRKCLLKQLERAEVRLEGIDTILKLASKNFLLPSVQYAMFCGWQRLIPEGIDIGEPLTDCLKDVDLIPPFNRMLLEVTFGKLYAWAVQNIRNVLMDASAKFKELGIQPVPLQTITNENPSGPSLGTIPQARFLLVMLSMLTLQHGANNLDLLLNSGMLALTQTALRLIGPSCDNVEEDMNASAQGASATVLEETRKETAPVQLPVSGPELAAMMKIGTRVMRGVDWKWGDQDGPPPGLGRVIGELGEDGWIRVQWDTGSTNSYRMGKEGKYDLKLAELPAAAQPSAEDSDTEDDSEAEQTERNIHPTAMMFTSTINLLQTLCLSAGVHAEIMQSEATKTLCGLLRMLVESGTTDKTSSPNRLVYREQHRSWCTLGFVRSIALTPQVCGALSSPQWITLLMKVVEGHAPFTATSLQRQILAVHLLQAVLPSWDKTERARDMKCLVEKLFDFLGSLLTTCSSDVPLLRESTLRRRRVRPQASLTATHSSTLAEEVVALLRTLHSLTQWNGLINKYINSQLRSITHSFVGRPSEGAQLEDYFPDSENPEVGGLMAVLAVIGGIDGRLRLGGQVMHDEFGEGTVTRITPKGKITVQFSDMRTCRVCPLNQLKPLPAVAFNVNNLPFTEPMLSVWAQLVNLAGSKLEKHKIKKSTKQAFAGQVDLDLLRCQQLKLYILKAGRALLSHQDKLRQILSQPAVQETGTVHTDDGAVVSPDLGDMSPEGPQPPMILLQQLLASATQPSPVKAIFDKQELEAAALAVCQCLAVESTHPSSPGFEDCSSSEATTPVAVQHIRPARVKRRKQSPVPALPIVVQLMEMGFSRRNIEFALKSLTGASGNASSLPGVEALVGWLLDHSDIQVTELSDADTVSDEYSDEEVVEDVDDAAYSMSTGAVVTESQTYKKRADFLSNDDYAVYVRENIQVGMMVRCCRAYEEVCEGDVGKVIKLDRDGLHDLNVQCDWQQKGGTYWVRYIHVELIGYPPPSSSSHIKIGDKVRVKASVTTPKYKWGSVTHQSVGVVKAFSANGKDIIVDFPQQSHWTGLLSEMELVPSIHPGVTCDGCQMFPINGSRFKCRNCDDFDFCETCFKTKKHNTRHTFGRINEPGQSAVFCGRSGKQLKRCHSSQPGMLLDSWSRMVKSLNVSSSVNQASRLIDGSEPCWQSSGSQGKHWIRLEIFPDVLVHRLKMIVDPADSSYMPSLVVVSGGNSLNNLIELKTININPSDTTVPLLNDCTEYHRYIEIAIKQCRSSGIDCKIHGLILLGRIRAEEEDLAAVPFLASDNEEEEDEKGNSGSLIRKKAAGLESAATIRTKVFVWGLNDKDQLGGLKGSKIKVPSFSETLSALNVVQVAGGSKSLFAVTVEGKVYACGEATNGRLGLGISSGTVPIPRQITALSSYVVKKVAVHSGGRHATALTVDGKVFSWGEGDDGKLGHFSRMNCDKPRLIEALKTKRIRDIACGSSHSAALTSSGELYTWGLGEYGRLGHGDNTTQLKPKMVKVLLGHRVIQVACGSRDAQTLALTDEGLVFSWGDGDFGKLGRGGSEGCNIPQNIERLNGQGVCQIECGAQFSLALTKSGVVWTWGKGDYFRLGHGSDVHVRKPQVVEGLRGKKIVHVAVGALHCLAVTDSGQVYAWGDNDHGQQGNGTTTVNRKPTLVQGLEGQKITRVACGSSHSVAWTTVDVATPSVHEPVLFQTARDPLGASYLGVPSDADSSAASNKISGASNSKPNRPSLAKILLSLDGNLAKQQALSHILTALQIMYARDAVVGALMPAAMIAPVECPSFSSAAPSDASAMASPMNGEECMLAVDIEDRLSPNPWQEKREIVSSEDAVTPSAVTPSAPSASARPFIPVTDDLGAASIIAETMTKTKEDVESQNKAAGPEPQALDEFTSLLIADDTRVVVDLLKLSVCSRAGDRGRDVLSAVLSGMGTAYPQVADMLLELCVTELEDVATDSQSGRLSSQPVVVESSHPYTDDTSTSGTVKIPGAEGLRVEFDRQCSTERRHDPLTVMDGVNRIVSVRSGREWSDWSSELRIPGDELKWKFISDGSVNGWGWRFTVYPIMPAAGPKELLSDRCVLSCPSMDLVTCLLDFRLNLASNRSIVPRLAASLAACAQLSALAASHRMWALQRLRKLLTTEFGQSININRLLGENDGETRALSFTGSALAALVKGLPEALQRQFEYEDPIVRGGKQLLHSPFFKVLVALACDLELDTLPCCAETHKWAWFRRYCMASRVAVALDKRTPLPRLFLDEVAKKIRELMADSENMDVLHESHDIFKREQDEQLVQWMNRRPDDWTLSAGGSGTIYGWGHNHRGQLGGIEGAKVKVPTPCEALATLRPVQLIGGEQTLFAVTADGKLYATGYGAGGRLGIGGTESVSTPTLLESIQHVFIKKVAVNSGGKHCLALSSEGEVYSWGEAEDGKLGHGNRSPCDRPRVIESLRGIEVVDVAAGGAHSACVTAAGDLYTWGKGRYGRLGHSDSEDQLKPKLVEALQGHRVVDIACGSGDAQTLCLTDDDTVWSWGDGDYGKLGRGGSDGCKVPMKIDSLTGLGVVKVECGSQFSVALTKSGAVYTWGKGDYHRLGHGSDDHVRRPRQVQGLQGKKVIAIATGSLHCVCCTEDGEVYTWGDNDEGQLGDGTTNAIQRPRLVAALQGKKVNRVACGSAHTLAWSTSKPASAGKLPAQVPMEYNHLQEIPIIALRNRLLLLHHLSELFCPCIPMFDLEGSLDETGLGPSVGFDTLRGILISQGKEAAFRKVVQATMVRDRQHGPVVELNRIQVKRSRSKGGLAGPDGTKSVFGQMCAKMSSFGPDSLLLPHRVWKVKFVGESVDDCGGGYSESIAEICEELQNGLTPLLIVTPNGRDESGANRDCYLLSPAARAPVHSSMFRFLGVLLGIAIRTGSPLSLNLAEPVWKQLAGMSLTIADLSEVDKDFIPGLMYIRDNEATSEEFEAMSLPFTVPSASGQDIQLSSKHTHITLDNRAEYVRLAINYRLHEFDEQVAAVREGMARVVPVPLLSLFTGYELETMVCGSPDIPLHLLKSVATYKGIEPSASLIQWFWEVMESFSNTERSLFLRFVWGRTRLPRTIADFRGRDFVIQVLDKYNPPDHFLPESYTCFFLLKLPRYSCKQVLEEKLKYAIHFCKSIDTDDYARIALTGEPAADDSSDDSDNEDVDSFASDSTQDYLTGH
UniProt O75531: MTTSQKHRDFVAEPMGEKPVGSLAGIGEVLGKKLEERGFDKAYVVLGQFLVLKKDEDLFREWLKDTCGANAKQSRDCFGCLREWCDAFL
UniProt O76064: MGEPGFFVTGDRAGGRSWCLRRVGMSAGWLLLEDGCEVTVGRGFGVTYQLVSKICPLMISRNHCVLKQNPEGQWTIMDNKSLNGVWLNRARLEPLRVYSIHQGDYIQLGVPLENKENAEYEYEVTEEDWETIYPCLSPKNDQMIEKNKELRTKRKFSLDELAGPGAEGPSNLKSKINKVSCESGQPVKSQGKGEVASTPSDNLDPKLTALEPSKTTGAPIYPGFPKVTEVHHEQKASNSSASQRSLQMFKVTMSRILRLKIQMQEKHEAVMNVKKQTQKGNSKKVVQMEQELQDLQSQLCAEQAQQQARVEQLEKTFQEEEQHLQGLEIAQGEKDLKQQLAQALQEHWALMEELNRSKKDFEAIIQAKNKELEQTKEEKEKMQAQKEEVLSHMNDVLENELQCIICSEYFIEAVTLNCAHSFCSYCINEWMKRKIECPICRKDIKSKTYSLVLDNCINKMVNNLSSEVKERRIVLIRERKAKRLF
UniProt O75570: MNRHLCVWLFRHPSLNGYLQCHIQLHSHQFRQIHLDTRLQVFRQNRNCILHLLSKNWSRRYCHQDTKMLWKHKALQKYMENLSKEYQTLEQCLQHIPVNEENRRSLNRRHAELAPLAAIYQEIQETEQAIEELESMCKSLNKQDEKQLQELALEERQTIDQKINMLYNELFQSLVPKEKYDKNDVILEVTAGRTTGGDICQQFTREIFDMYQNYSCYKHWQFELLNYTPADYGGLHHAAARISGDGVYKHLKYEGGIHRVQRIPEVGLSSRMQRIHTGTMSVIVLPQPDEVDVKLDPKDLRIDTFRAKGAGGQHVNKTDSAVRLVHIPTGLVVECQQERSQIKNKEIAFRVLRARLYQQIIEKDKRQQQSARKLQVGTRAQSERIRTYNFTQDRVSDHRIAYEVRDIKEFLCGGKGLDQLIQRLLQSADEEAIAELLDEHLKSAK
UniProt O95149, whole entry: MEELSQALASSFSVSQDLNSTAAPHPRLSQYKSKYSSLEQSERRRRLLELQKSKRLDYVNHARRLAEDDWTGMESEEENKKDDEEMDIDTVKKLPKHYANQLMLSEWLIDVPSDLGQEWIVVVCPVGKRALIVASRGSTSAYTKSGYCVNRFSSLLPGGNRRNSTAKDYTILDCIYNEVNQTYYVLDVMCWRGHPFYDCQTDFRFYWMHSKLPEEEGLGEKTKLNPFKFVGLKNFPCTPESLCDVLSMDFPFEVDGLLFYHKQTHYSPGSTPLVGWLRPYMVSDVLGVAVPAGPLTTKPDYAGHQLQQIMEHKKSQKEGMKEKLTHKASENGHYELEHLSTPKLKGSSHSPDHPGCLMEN
UniProt O75880: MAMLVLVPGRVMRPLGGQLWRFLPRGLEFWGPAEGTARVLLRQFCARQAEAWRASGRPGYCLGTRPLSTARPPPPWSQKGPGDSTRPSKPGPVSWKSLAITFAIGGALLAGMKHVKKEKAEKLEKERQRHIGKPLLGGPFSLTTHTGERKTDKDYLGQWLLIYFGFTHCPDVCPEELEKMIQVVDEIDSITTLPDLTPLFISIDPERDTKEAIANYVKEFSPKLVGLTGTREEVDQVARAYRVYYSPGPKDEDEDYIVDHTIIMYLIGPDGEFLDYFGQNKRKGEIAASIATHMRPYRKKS

Row | Target | log2 fold change
1 | HERC2 (peptide sequence: KADLENHNK, peptide start residue: 1212) (UniProt O95714) | -0.689
2 | UniProt O94880 (peptide sequence: NSAEEEVLSSEK, peptide start residue: 83) | 0.116
3 | WIZ (peptide sequence: EVVAGAPRPGLLSLAK, peptide start residue: 940) (UniProt O95785) | -0.537
4 | GCAT (peptide sequence: VQISAVHSEEDIDR, peptide start residue: 390) (UniProt O75600) | 0.113
5 | UniProt O75808 (peptide sequence: LAELLSGKR, peptide start residue: 286) | 0.238
6 | BANF1 (peptide sequence: EWLKDTCGANAK, peptide start residue: 61) (UniProt O75531) | 0.153
7 | RNF8 (peptide sequence: SLNGVWLNR, peptide start residue: 81) (UniProt O76064) | 0.543
8 | UniProt O75521 (peptide sequence: IMFNRPK, peptide start residue: 153) | -0.2
9 | DDAH2 (peptide sequence: TVVAGSSDAAQK, peptide start residue: 183) (UniProt O95865) | -0.193
10 | MTRF1 (peptide sequence: MQRIHTGTMSVIVLPQPDEVDVK, peptide start residue: 272) (UniProt O75570) | 0.784
11 | PCF11 (peptide sequence: ELTLASKR, peptide start residue: 655) (UniProt O94913) | -0.185
12 | SNUPN (peptide sequence: FYWMHSKLPEEEGLGEK, peptide start residue: 205) (UniProt O95149) | -0.653
13 | SCO1 (peptide sequence: GPGDSTRPSKPGPVSWK, peptide start residue: 80) (UniProt O75880) | -0.0594
14 | MOCS2 (peptide sequence: LPLSPPLVEDSAFEPSRK, peptide start residue: 17) (UniProt O96007) | 0.887
15 | CCNB2 (peptide sequence: EMETLILK, peptide start residue: 248) (UniProt O95067) | -0.992
16 | NDUFA10 (peptide sequence: CEVLQYSAR, peptide start residue: 253) (UniProt O95299) | -0.00128

Single values from the results shown.
log2 fold change, MTRF1 (peptide sequence: MQRIHTGTMSVIVLPQPDEVDVK, peptide start residue: 272) (UniProt O75570) reads 0.784
log2 fold change, PCF11 (peptide sequence: ELTLASKR, peptide start residue: 655) (UniProt O94913) reads -0.185

Reference: the supplement of paper PMC12819154, “High-throughput peptide-centric local stability assay extends protein–ligand identification to membrane proteins, tissues and bacteria” (Nature Structural & Molecular Biology, 2025)
